Results are given in words; binding and its absence hold for the method and conditions named. In cells and extracts the contact can be indirect. Some binding calls cover weakened binding; strength is not graded here.
Tests used:
[1] = biological target: PARP1 (poly (ADP-ribose) polymerase 1), untagged, in HK-2 cells (human (endogenous in HK-2)) (UniProt P09874); test: co-IP; HK-2 lysates; anti-XRCC1 or anti-PARP1 antibody, control mouse IgG, protein G magnetic beads, 4 °C 1 h; Western blot; cells overexpressing PARP1 or with shRNA against PARP1
[2] = biological target: Myc-PARP1 (poly (ADP-ribose) polymerase 1) (UniProt P09874); test: co-IP; HK-2 cells co-transfected with Myc-PARP1 and XRCC1-Flag; anti-Myc and anti-Flag agarose beads on cell lysates; Universal Magnetic Co-IP kit; Western blot

Protein sequences, listed by entry. Tags and fused reporters are not part of them.
UniProt P09874: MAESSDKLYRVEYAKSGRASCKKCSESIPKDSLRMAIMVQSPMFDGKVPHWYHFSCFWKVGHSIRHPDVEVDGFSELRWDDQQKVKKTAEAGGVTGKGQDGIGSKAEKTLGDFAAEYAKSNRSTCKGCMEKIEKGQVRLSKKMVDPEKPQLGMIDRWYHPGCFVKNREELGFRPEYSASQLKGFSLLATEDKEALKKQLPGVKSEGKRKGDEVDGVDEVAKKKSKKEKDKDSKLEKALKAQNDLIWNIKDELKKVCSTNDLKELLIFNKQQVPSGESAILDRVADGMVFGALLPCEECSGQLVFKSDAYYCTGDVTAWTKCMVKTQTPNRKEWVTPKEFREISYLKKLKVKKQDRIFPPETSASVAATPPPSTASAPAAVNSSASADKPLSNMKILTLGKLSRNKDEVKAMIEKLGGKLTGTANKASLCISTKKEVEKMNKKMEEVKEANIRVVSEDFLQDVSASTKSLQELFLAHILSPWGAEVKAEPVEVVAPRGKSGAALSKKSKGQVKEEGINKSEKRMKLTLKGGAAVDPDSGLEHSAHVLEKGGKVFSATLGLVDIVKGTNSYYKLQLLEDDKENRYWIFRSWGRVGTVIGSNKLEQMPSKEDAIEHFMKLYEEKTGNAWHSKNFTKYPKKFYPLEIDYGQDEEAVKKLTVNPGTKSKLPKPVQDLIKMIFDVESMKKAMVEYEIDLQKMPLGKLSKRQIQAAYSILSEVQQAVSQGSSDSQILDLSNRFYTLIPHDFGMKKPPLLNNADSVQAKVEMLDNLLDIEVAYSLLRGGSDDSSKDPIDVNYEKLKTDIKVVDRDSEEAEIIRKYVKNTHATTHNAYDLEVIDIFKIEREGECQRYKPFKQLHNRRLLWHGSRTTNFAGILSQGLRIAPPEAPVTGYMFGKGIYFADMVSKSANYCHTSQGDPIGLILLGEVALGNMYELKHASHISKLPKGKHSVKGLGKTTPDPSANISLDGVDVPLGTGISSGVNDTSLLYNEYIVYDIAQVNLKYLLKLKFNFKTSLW
UniProt P18887: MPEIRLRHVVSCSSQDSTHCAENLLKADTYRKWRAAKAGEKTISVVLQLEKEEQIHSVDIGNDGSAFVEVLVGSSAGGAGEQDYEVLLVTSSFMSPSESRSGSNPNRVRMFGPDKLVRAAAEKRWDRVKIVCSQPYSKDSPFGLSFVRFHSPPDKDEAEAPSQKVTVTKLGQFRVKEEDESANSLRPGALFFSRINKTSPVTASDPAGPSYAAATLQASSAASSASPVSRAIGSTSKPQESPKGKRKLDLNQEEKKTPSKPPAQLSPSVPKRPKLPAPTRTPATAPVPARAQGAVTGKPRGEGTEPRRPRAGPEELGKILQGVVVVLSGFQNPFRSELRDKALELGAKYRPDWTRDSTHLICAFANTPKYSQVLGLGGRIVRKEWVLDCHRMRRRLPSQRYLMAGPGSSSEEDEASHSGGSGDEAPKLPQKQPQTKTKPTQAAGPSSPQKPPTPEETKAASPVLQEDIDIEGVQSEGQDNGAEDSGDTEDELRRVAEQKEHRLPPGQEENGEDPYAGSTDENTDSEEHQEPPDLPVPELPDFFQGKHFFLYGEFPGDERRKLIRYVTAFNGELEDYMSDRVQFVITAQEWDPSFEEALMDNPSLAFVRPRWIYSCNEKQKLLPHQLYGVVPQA

Substance | binding [1] | binding [2]
XRCC1 (X-ray repair cross-complementing 1), endogenous in HK-2 cells (from UniProt P18887 1-633) | binds | –
XRCC1-Flag (X-ray repair cross-complementing 1) (from UniProt P18887 1-633) | – | binds

— paper PMC10541701
